The results in this text go back to article PMC8630662.

No constants are given. Whether binding was seen depends on the method and setting. Binding seen in cells or lysates may run through a third protein. Binding can be weak; no strength is given.

The target of experiment [1] is in situ tagged TbSlp2-Myc (Trypanosoma brucei) (UniProt Q57VW1). Briefly: co-IP; lysate of T. brucei procyclic forms co-expressing the two in situ tagged proteins (10 mM Tris-HCl pH 7.4, 150 mM NaCl, 1 mM EDTA, 1% Triton X-100, 0.5% NP-40); anti-HA or anti-Myc antibody or beads alone, Protein G Dynabeads, 4°C; SDS-PAGE and immunoblot.
In experiment [2] the target is in situ tagged TbPgs-HA (T. brucei phosphatidylglycerophosphate synthase) (Trypanosoma brucei) (UniProt Q582B0). Described as above.

“in situ tagged TbPgs-HA (T. brucei phosphatidylglycerophosphate synthase) (from UniProt Q582B0) (enzyme)”: the binding result in experiment [1] is “binds”.
Consider “in situ tagged TbSlp2-Myc (from UniProt Q57VW1)”, for which the binding entry in experiment [2] is given as “binds”.
